Primary screen of a compound library

Mtb cholesterol medium: 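Whole-cell growth test on Mycobacterium tuberculosis, read after 4 days in a medium based on cholesterol and the lipid DPPC; the read-out is not stated. Concentration: 50 µM. Direction is inferred from retests: higher values go with more growth inhibition. About 69,000 compounds were tested under these conditions; 0.54% (about 370) showed 50% or more at least once.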
Mtb glucose medium: 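Growth of Mycobacterium tuberculosis over 3 days (7H9 medium with glucose and tyloxapol); the read-out is not stated. Concentration: 50 µM. The record gives no direction; compounds that gave an IC50 in retests scored well above the rest, so higher reads as more growth inhibition. About 69,000 compounds were tested under these conditions; 1.1% (about 760) showed 50% or more at least once.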

Values are the deposited “Percent Effect”, in %.
The controls that fix the scale are not given in the record; negative values are as filed.
Compounds were drawn at random from those tested, without regard to their results.
Two or more numbers in one place are separate tests of the same structure; such repeats can differ widely.

structure	Mtb cholesterol medium	Mtb glucose medium
CC(=O)N1CCC(CCc2ccnc(NC(=O)c3ccccn3)c2)CC1	4.629% and -6.349%	-31.9%
CCC(CC)C(=O)N1CCC2(CC1)c1ccccc1[C@@H](OC)[C@@H]2O	-18.7%	-4.245%
Cn1ccc2c(-c3cc(N4CCCCC4)ncn3)ccnc21	18.95%	28.6%
CCCc1nnc(NC(C)c2ccc(F)cc2)o1 (stereo not drawn)	29.56%	20.9% and 21.02%
O=C1c2cnc(N3CCOCC3)nc2CN1Cc1cccc(F)c1	14.66%	6.194%
Cc1cc(CNC2(c3ccccc3F)CC2)no1	-11.23%	-3.763%
N#Cc1ccc(OC2CCN(C(=O)c3ccc4c(c3)OCO4)CC2)nc1	-15.11%	4.191% and 17.09%
Cc1nc(NCc2ccco2)nc2c1COCC21CCNC1.O=C(O)C(F)(F)F (stereo not drawn)	-12.84%	-28.41% and -2.145%
COC(=O)[C@@H]1Cc2ncn(C)c2CN1S(=O)(=O)c1ccc(C)cc1	5.955%	6.923% and 5.73%
NC(=O)COc1ccc(CN2CCC(O)(CN3CCCCC3)C2)cc1Cl (stereo not drawn)	12.24%	-2.069% and 15.33%
CCn1ccnc1CN1CCCN(C(=O)Cc2ccc(F)cc2)CC1	-34.14%	-36.64%
CC1(NC(=O)Cc2csc(C(C)(C)C)n2)CCS(=O)(=O)C1 (stereo not drawn)	-23.39%	-21.81% and -0.6309%
Cc1nc2cc(OCc3nc(C(=O)NC(CO)CO)co3)ccc2s1	-20.18% and 6.973%	-19.92%
CCCC(=O)NC(C)(C)Cc1ccccc1OC	30.39%	37.45% and 35.47%
Cc1nc(-c2ccncc2)ncc1C(C)NC(=O)CN1CCCC1=O (stereo not drawn)	8.775%	-3.928%
CN(C)c1nc(CNC(=O)NC2CCc3ccccc32)cs1 (stereo not drawn)	-21.34%	13.61%
NC(=O)c1ccc(CN2CCC(N3CCCCC3)CC2)cc1	-28.93%	-7.654%
O=C(O)c1cccnc1CN1CCCCC1CCc1ccccn1 (stereo not drawn)	10.3%	3.632% and -0.8668%
Cc1nn(C)c(Oc2ccc(Cl)cc2)c1CN1CC[C@H](CO)[C@@H](O)C1	-0.7133%	-30.03%
CC(=O)N1C[C@H](NC(=O)c2ccnc(N)c2)[C@@H](C(C)C)C1	-1.791%	-15.14% and -6.77%
CCn1nc(C)c2ncnc(NCCn3cccn3)c21	-13.13%	1.977%
NC(=O)C(CNC(=O)Cc1ccsc1)Cc1ccc(F)cc1 (stereo not drawn)	13.33%	31.45%
O=S(=O)(NCC1(c2cccs2)CCCC1)c1cccnc1	-13.04%	1.256%
COc1ccc2c(C)c(C(=O)NC3CCOCC3)oc2c1	-11.97% and -4.347%	5.432%
Cc1nc(CNC(=O)Cn2nc(-c3ccc(F)cc3)oc2=O)cs1	2.12%	-41.37%
C[C@@H]1CN(C2CCN(Cc3nn(C)c4cccc(Cl)c34)CC2)C[C@H](C)O1	-4.796%	3.416%
CC(C)CNC(=O)c1nc2c(s1)CCN(C(=O)c1cccnc1)CC2	7.866%	17.25%
CCc1nc(CN(C)C2CCN(CC(=O)N3CCOCC3)C2)no1 (stereo not drawn)	-10.6%	-27.48%
Cc1cccc(C(C)NCC2CCS(=O)(=O)CC2)c1 (stereo not drawn)	-18.08%	-13.62%
CCCc1n[nH]cc1C(=O)NCC1COc2cc(OC)ccc2C1 (stereo not drawn)	-35.14%	-9.037%
Cc1nc(-c2cc(C(=O)N3CCN(C)CC3)c3ccccn23)cn1C	-40.6%	-44.53%
CC(C)OCc1nn(C)c2c1CN(Cc1cccs1)CC2.O=CO	-9.48%	5.015%
Cc1cc(C2CCCN(Cc3nc(Cc4ccccc4)no3)C2)n[nH]1 (stereo not drawn)	12.22%	4.688%
Cc1nc(C)n(CC2CCCN(CCOc3ccc(F)cc3)C2)n1 (stereo not drawn)	-3.043%	10.39%
Cc1cc(C)nc(N2CCOC(c3cc(CCO)[nH]n3)C2)n1 (stereo not drawn)	4.312% and -2.773%	-32.34%
O=C(COCc1nc(-c2ccncc2)no1)NC1CCCCC1	-21.7%	-21.39%
CC(C)CN(Cc1nc2c(cnn2C)c(=O)[nH]1)C(C)C	18.49%	9.474%
Cc1nc(C)c(CC(=O)NCc2cccnc2OC2CCCC2)c(=O)[nH]1	-0.7746% and -12.88%	-27.51% and 0.6766%
O=C(NCCNCc1cccc2c1OCCCO2)C1CCCC1	-11.83%	2.795% and 1.617%
O=C(c1ccccc1N1CCOCC1)N1CCCC1Cn1cccn1 (stereo not drawn)	21.81%	19.46%
CN(CCc1ccccn1)C(=O)CCC1CCCN(c2ncccn2)C1 (stereo not drawn)	9.936%	-3.344%
Cc1cc(C[C@@H]2COC[C@H]2NCc2ccc(Br)s2)on1.O=C(O)CC(O)(CC(=O)O)C(=O)O	27.93%	-0.08385%
Cc1c(-c2ccccc2)nc2c(c(C)c(C)n2CCN(C)C)c1N	-9.597%	14.84% and -3.478%
O=C(c1ccc(-n2cccn2)cc1Cl)N1CCCC(O)(CO)C1 (stereo not drawn)	0.1769%	11.38%
Cc1cc(-c2cnc(N3CCN(C)CC3)nc2-c2ccc(C)s2)on1	21.24%	17.43%
[H][C@]12CCN(c3ncccc3F)C[C@]1(COC)CC[C@@H](N1CCOCC1)C2	-6.992%	6.883%
COc1ccc(OC)c(C(O)CN2CCC(N3CCC(C)CC3)CC2)c1 (stereo not drawn)	-37.32%	-18.9%
c1cncc(OCc2noc3c2CN(Cc2ccoc2)CC3)c1	-3.927%	-0.1667%
CCN1CC(COc2ccccc2)Oc2ncccc2S1(=O)=O (stereo not drawn)	-1.199%	9.084%
CN1CC(C(=O)NCc2cccnc2-n2cccn2)CC1=O (stereo not drawn)	8.788%	6.564%
COC1CCN(C(=O)c2nn(-c3ccc(C(C)C)cc3)cc2O)CC1	7.542%	2.977%
CCNC(=O)Nc1c(C)cnn1Cc1cc(F)ccc1F	-14.69%	-37.21%
Cc1cc(C(=O)N2CCOC(c3ccc(Cl)c(Cl)c3)C2)[nH]n1 (stereo not drawn)	36.26%	39.62%
Cc1nonc1NC(=O)c1ccc(F)c(COCC2CC2)c1	-8.241%	13.41% and -18.54%
CC(NC(=O)C1CCN(C(C)C)CC1)c1nncn1C1CCCC1 (stereo not drawn)	-21.56%	-16.78%
NC(=O)COc1ccc(CN2CCC3(CC2)[C@H](O)C[C@@H]3O)cc1Cl	10.92%	-21.8% and -13.15%
CN(Cc1nccn1C)C(CO)c1cccc(Br)c1 (stereo not drawn)	8.579%	-14.07%
CN(C)CCSc1ccc(NC(=O)c2nccn3ccnc23)cc1	-12.93%	-6.591%
CC(C)(C)c1noc(CCCC(=O)N2CCCC(c3ccn[nH]3)C2)n1 (stereo not drawn)	-21.24%	-0.7072%
NC(=O)N1CCCN(C2CCc3ccc(F)cc32)CC1 (stereo not drawn)	3.531%	3.413% and -4.464%
Fc1cccnc1N1CCC2(CNCCC2(F)F)C1 (stereo not drawn)	-37.39%	-29.5% and -8.126%
Cc1nc(CSCCC(=O)NCc2ccc(N(C)C)cc2)cs1	7.149%	8.304% and 1.868%
Cc1cc(NC(C)C(=O)N2CCN(c3ncccn3)CC2)ccc1F (stereo not drawn)	-21.84%	21.68% and 3.155%
COc1cc(C)nc(N2CCN(C(=O)c3cc(Cl)c[nH]3)CC2)n1	-4.798% and 8.088%	27.72%
N#Cc1cccc(CNC(=O)Nc2cccnc2N2CCCC2)c1	-12.79%	13.47%
CN(C)C(CNS(=O)(=O)c1cnn(C)c1)c1cccc(F)c1 (stereo not drawn)	4.616%	4.515%
CC(C)c1noc(C(C)N2CCN(Cc3noc(C(C)(C)C)n3)CC2)n1 (stereo not drawn)	-5.454%	3.46%
CN(Cc1cc(-c2ccncc2)no1)C(=O)[C@@H]1CSCN1C	-1.322%	22.53%
[H][C@@]12C[C@H](C(=O)N(C)C)[C@@]([H])(CN(C(=O)NCc3ccccc3C)C1)O2	1.736%	21.76%
NC(=O)c1ccc(C2CN(Cc3ccc(F)cc3)CCO2)nc1 (stereo not drawn)	-34.53%	-22.81%
Clc1cccc(C(NCc2ncc[nH]2)c2ccccn2)c1 (stereo not drawn)	4.089%	8.328% and 20.06%
O=C(O)C(F)(F)F.[H][C@]12CCC[C@@H](CN(C)CCOC)[C@@]1([H])CN(c1ncccn1)C2	5.583%	25.66%
Cc1nc(CC(=O)N2CCN(c3ccc(N(C)C)cc3)CC2)cs1	-1.61%	-5.124%
CC(C)n1cnnc1CCNCc1cn(CCC(N)=O)c2ccccc12	12.91%	-6.366%
CCOc1ccccc1CCN1Cc2ncccc2C1=O	-7.611%	-19.96%
CS(=O)(=O)c1cc(Cl)cnc1C1CCN(C(=O)C2CC2)CC1	-12.63% and -11.26%	5.043%

Repeated from the top, 5 entries:

CC(=O)N1CCC(CCc2ccnc(NC(=O)c3ccccn3)c2)CC1 gave Mtb cholesterol medium: 4.629% and -6.349%; Mtb glucose medium: -31.9%.
CCC(CC)C(=O)N1CCC2(CC1)c1ccccc1[C@@H](OC)[C@@H]2O gave Mtb cholesterol medium: -18.7%; Mtb glucose medium: -4.245%.
Cn1ccc2c(-c3cc(N4CCCCC4)ncn3)ccnc21 gave Mtb cholesterol medium: 18.95%; Mtb glucose medium: 28.6%.
CCCc1nnc(NC(C)c2ccc(F)cc2)o1 (stereo not drawn) gave Mtb cholesterol medium: 29.56%; Mtb glucose medium: 20.9% and 21.02%.
O=C1c2cnc(N3CCOCC3)nc2CN1Cc1cccc(F)c1 gave Mtb cholesterol medium: 14.66%; Mtb glucose medium: 6.194%.

Data taken from ChEMBL document CHEMBL3988442, “University of Dundee, Small-Polar-MMV Screening Library” (2021).